Measurements: the supplement of paper PMC7666118
Some of the results follow.

By UniProt entry, the sequences of proteins in these tests, tags left out. Where a name states a change or a piece, a line headed by the entry shows the natural chain unless it says otherwise.
UniProt Q9UJW0, whole entry: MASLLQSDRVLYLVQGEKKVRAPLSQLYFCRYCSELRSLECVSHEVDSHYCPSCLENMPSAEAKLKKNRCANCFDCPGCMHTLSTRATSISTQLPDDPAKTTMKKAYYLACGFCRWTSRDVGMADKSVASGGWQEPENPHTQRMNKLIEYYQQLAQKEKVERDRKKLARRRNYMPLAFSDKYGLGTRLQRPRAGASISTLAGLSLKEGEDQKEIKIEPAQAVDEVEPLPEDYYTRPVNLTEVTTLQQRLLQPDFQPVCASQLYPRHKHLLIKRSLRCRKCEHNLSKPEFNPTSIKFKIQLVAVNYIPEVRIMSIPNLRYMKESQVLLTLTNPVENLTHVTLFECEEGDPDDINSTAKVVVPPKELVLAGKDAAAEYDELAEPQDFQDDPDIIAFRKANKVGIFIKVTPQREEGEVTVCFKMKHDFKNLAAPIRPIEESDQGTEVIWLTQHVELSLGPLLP
UniProt O76075: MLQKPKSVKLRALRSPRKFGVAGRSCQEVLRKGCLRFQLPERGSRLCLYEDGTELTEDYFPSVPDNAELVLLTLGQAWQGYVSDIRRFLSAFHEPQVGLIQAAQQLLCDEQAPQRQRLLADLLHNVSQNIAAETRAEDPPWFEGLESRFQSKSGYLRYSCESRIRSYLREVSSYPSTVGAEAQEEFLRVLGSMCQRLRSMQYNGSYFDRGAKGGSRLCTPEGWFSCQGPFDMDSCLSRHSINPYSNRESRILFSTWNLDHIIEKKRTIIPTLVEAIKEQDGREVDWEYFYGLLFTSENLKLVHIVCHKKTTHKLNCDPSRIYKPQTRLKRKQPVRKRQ
UniProt P21964: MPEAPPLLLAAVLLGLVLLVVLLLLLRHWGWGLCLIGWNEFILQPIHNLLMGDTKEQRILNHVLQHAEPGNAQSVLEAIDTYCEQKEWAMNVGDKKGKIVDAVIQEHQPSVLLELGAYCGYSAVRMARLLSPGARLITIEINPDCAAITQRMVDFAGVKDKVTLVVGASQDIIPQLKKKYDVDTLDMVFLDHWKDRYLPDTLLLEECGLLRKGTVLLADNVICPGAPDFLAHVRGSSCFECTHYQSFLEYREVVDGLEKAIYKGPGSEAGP
UniProt Q8TEH3: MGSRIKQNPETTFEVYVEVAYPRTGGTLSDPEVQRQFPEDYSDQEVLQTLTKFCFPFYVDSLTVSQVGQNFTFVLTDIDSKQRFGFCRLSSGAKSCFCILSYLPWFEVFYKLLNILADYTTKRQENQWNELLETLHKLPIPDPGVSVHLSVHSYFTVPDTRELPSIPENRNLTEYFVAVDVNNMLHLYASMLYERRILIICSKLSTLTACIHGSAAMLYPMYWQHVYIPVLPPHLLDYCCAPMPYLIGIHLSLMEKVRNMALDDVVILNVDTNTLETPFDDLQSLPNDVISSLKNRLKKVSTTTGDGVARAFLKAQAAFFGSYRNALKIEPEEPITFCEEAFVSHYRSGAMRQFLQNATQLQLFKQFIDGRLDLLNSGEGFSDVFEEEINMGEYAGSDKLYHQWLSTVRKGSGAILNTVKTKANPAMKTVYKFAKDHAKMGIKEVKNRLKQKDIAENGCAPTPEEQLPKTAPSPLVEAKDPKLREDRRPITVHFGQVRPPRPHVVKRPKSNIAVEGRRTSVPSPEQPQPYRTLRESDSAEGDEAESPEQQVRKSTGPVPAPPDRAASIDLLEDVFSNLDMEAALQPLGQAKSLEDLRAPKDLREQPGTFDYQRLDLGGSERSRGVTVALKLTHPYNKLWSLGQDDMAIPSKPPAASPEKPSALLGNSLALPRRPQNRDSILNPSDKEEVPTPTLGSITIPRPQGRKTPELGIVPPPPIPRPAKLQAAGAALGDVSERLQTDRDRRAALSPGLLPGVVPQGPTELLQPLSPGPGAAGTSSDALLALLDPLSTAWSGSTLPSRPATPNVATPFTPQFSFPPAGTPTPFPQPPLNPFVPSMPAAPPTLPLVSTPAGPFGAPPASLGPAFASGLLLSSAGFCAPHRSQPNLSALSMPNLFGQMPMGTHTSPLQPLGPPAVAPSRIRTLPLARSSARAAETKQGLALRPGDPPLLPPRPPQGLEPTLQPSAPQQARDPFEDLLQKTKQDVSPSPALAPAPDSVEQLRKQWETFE
UniProt O75064: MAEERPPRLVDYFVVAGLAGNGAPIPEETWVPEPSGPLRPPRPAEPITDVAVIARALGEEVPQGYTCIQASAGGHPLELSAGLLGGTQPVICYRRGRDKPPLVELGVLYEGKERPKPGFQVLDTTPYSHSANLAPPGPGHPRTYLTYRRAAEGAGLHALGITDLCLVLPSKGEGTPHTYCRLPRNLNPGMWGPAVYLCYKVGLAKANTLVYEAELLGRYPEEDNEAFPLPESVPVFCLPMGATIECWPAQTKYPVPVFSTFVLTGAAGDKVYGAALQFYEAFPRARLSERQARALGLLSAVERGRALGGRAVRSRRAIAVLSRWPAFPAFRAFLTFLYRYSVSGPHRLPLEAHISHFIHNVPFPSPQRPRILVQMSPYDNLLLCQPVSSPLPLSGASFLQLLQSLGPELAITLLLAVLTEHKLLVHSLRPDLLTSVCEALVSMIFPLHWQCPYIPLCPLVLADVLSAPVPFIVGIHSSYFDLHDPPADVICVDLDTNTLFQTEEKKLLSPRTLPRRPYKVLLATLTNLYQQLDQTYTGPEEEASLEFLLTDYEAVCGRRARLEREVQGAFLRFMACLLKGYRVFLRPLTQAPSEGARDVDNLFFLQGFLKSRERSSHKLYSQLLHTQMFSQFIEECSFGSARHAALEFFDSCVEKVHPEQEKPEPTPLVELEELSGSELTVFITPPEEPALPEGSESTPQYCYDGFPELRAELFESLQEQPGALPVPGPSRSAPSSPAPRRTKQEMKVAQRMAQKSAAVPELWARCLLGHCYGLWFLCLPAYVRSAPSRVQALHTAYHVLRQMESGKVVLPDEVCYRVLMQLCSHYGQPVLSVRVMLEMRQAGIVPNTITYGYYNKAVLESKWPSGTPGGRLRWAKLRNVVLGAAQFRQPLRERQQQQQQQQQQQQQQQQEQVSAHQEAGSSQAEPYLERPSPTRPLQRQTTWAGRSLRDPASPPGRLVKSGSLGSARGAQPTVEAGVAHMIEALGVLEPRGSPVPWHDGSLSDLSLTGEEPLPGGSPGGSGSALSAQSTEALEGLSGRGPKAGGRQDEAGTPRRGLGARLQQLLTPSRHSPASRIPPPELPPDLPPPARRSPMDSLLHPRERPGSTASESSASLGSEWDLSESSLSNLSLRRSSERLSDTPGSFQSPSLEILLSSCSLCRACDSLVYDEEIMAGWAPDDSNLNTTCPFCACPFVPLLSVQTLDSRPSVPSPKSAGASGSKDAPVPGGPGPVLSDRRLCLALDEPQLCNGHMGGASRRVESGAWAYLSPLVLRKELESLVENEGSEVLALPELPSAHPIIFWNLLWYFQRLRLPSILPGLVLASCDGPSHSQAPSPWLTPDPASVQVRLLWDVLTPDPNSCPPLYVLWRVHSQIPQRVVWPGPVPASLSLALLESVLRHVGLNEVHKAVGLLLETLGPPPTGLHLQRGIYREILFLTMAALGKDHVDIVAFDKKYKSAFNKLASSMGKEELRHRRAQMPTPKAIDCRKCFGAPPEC
UniProt P11182, whole entry: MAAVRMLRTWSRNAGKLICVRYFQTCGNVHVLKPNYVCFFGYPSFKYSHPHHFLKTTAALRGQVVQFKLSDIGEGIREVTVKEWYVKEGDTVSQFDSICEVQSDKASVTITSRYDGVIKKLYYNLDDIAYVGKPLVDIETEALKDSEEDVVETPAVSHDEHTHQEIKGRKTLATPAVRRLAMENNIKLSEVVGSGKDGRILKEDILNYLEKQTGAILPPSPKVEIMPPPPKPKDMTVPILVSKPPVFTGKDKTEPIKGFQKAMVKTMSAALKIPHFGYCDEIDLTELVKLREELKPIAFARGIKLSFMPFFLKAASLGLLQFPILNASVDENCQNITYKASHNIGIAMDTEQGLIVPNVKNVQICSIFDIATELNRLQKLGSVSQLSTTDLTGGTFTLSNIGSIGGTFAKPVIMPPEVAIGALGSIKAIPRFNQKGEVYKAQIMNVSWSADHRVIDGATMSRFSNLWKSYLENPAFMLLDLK
UniProt P61803: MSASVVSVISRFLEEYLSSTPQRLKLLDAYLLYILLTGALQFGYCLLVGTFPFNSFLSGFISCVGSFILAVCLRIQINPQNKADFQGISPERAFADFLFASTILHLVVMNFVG
UniProt Q7Z478: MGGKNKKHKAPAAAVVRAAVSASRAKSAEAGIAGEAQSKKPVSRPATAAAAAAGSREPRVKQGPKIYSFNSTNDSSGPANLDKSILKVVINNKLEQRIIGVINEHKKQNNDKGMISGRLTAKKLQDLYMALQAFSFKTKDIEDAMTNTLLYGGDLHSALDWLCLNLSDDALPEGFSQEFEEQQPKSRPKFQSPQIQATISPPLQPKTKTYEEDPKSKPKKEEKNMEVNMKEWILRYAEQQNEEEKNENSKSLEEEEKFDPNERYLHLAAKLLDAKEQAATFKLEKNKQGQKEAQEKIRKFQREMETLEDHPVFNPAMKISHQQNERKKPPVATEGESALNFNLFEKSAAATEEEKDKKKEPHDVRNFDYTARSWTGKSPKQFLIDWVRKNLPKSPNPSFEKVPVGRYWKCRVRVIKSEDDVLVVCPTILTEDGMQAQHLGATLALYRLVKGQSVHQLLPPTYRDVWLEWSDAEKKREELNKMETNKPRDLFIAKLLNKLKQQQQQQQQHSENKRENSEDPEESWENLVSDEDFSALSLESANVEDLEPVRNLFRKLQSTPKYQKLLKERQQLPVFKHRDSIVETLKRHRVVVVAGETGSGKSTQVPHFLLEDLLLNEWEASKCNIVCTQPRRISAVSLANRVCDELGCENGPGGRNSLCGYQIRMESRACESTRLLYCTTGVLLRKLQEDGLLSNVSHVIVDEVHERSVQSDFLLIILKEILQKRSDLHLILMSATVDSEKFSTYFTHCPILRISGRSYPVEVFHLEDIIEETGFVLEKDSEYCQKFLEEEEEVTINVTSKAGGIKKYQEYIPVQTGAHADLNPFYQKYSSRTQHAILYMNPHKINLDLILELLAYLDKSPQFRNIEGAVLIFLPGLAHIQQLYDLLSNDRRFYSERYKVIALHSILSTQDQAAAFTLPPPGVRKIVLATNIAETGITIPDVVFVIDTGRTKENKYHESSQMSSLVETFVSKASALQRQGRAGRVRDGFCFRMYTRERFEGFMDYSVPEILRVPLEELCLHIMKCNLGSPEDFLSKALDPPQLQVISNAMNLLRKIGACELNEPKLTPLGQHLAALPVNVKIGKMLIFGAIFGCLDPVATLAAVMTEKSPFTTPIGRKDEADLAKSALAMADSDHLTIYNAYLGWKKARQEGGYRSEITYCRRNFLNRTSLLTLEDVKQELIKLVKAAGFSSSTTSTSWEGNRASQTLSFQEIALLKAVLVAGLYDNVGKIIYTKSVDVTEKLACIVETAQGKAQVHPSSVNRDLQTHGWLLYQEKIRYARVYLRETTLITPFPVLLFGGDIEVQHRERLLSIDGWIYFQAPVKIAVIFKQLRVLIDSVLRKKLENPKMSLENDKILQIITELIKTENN
UniProt Q99807: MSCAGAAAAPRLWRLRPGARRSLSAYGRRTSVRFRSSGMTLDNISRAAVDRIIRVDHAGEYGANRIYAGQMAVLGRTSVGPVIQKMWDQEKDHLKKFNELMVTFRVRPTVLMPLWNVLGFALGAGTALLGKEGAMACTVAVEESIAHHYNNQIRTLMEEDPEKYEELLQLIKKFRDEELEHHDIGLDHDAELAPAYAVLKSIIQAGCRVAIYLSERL
UniProt O75534: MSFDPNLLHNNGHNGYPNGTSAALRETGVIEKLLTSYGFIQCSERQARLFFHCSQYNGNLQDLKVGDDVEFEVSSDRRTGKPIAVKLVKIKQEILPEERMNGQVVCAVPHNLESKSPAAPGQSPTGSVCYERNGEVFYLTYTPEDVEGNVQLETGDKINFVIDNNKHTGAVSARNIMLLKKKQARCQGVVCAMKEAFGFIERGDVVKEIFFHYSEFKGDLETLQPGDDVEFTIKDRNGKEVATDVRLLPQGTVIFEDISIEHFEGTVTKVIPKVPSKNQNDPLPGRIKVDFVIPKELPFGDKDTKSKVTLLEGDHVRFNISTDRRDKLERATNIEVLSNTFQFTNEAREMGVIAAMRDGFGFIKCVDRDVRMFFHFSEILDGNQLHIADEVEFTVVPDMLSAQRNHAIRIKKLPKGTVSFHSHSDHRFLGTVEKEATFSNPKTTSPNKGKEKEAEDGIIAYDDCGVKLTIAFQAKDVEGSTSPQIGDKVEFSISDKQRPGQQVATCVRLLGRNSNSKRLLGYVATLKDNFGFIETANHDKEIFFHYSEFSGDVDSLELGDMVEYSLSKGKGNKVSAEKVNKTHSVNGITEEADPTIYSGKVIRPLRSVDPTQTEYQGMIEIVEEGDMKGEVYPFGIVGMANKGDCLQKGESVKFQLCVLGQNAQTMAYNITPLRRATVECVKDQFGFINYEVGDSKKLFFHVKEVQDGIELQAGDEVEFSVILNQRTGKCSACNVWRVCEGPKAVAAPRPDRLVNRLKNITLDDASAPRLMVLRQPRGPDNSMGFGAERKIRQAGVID

Compound: COc1ccc(Cn2ccc3ccc(C(=O)NO)cc32)cc1
Assay: dose-dependent thermal stabilisation call (2D-TPP, DLPTP, 10% FDR) (binary (1 = stabilised)); higher = stabilised by the compound
Settings: system: HL-60 intact cells; concentration range 0.04-10 µM

Target	dose-dependent thermal stabilisation call
CRYZ (UniProt Q08257)	inactive: 0
DDX59 (UniProt Q5T1V6)	inactive: 0
DCTN4 (UniProt Q9UJW0)	inactive: 0
DFFB (UniProt O76075)	inactive: 0
CSNK1E (UniProt P49674)	inactive: 0
COMT (UniProt P21964)	active: 1
DDT (UniProt P30046)	inactive: 0
CPNE2 (UniProt Q96FN4)	inactive: 0
COX7C (UniProt P15954)	inactive: 0
CTNNBL1 (UniProt Q8WYA6)	inactive: 0
CTBP2 (UniProt P56545)	inactive: 0
DENND1A (UniProt Q8TEH3)	inactive: 0
DENND4B (UniProt O75064)	inactive: 0
DDX42 (UniProt Q86XP3)	inactive: 0
DBT (UniProt P11182)	inactive: 0
DDX18 (UniProt Q9NVP1)	inactive: 0
CRLF3 (UniProt Q8IUI8)	inactive: 0
DDX28 (UniProt Q9NUL7)	inactive: 0
DDX6 (UniProt P26196)	inactive: 0
DAD1 (UniProt P61803)	inactive: 0
DHX29 (UniProt Q7Z478)	inactive: 0
COQ7 (UniProt Q99807)	inactive: 0
DGCR14 (UniProt Q96DF8)	inactive: 0
DDX60L (UniProt Q5H9U9)	inactive: 0
CP110 (UniProt O43303)	inactive: 0
DDX26B (UniProt Q5JSJ4)	inactive: 0
CSDE1 (UniProt O75534)	inactive: 0

Part of the list above, with each value named:
DDT (UniProt P30046)
  dose-dependent thermal stabilisation call: inactive: 0
CTNNBL1 (UniProt Q8WYA6)
  dose-dependent thermal stabilisation call: inactive: 0
